# Measurements published in the supplement of paper PMC8166895.
# Structures can show the parent of a compound that is named as a salt. The list shows a part of the results. Most entries show no effect beyond the scatter of the controls.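 A single-replicate pilot screen of approved drugs and clinical or known-target compounds measured melting temperature via differential scanning fluorimetry. Top stabilizing hits raised the melting point by 2 °C or more; negative shifts indicate destabilization.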 Where a SMILES comes first, the peptide text is derived from it. Bridges are numbered along the chain shown (N, C = ends). [ ]: non-standard residue; d: D form. The star is where a group is joined. Ileψ(thiazoline)Cys = CC[C@H](C)[C@H](N)C1=N[C@H](C(=O)*)CS1; dOrn = NCCC[C@@H](N)C(=O)O
# System: SARS-CoV-2 main protease (Mpro, nsp5)
# Assay: thermal shift ΔTm of Mpro relative to plate average Tm; higher = stronger thermal stabilization of Mpro (binding)
# Details: 10 µM; protein concentration 1 µM
row,SMILES,thermal shift ΔTm of Mpro
1,CC[C@@H](C(N)=O)N1CCCC1=O [Levetiracetam],0.505 °C
2,CC(=O)NS(=O)(=O)c1ccc(NC(=O)c2ccccc2C(=O)O)cc1 [Phthalylsulfacetamide],0.191 °C
3,N#Cc1cccc(-c2c[nH]c3ncnc(N4CCOCC4)c23)c1,-0.0289 °C
4,CC[C@H](C)[C@H](N)C1=N[C@H](C(=O)N[C@@H](CC(C)C)C(=O)N[C@H](CCC(=O)O)C(=O)N[C@H](C(=O)N[C@H]2CCCCNC(=O)[C@H](CC(N)=O)NC(=O)[C@@H](CC(=O)O)NC(=O)[C@H](Cc3cnc[nH]3)NC(=O)[C@@H](Cc3ccccc3)NC(=O)[C@H]([C@@H](C)CC)NC(=O)[C@@H](CCCN)NC2=O)[C@@H](C)CC)CS1 [Bacitracin] ({Ileψ(thiazoline)Cys}-L[dE]IK[dOrn]I[dF]H[dD]N; lactam 4-C),0.0585 °C
5,O=C(CCc1ccc(O)cc1)c1c(O)cc(O)cc1O [Phloretin],0.949 °C
6,Cc1cn(CCN2CCN(c3ccccc3-c3cc(C#N)cc(C(=O)NCCCN4CCCC4)c3)CC2)c2ccccc12,0.256 °C
7,CN1CCN(CCCN2c3ccccc3Sc3ccc(C(F)(F)F)cc32)CC1 [Trifluoperazine 2HCl],-0.126 °C
8,CNCc1ccc(-c2cc(-c3nc(-c4ccc(S(=O)(=O)C(C)C)cc4)cnc3N)on2)cc1,0.143 °C
9,COc1ccc(OC)c(C(O)CNC(=O)CN)c1 (configuration not stated) [Midodrine hydrochloride],0.421 °C
10,CC(S)C(=O)NCC(=O)O (configuration not stated) [Tiopronin],0.0568 °C
11,O=C(O)CCCc1ccc(N(CCCl)CCCl)cc1 [Chloroambucil],-0.0638 °C
12,NCC(CS(=O)(=O)O)c1ccc(Cl)cc1 (configuration not stated) [Saclofen],0.0491 °C
13,C=CC(=O)Nc1ccc(CN(C(=O)Nc2c(Cl)c(OC)cc(OC)c2Cl)c2cc(Nc3ccc(N4CCN(C)CC4)cc3)ncn2)cc1,0.355 °C
14,CNC[C@H](O)c1ccc(O)c(O)c1 [Epinephrine Bitartrate],0.00903 °C
15,CNC[C@H](O)c1ccc(O)c(O)c1 [Epinephrine HCl],0.0253 °C
16,O=C(NCc1ccccc1)c1csc(Nc2ccncn2)n1 [Thiazovivin],0.278 °C
17,C=CC(=O)Nc1cc2c(Nc3ccc(F)c(Cl)c3)ncnc2cc1OCCCN1CCOCC1 [Canertinib],0.196 °C
18,O=C(Nc1ccccc1C(=O)NC1CCCCNC1=O)c1cc2ccccc2s1 (configuration not stated),-0.205 °C
19,O=C1N[C@](c2ccc(N3CCOCC3)cc2)(c2ccsc2)CC(O)=C1Sc1ccccc1Cl,0.0877 °C
20,CCc1cc(Nc2nccc(-c3c(-c4ccc(OC)c(C(=O)Nc5c(F)cccc5F)c4)nc4ccccn34)n2)c(OC)cc1N1CCC(N2CCN(S(C)(=O)=O)CC2)CC1,0.163 °C
21,CC(C)OC(=O)N1CCC(Oc2ncnc3c2cnn3-c2ccc(S(C)(=O)=O)cc2F)CC1,0.323 °C
22,Nc1ccn([C@H]2CC[C@@H](CO)O2)c(=O)n1 [Zalcitabine],-0.176 °C
23,Cc1ccc(C2Nc3ccccc3-n3c(-c4ccccc4)c4c(=O)n(C)c(=O)n(C)c4c32)o1 (configuration not stated),-0.0344 °C
24,COc1cccc(-c2cc(=O)c3ccccc3o2)c1N,0.117 °C
25,C=CCNC(N)=S [Allylthiourea],0.153 °C
26,CNC(=O)c1cccc(-c2ccc3c(N4CCOC[C@@H]4C)nc(N4CCOC[C@@H]4C)nc3n2)c1,0.0138 °C

row,SMILES,thermal shift ΔTm of Mpro
1,CN(C)CCOC(C)(c1ccccc1)c1ccccn1 (configuration not stated) [Doxylamine Succinate],-0.171 °C
2,c1cnoc1 [Isoxazole],-0.0697 °C
3,Oc1c(I)cc(Cl)c2cccnc12 [Clioquinol],0.0227 °C
4,C[C@@H](O)[C@H]1C(=O)N2C(C(=O)O)=C(S[C@@H]3CN[C@H](CNS(N)(=O)=O)C3)[C@H](C)[C@H]12 [Doripenem Hydrate],0.595 °C
5,COc1cc2nccc(Oc3ccc(NC(=O)Nc4cc(C)on4)c(Cl)c3)c2cc1OC [Tivozanib (AV-951)],-0.143 °C
6,CC(C)(C#N)c1cc(Cn2cncn2)cc(C(C)(C)C#N)c1 [Anastrozole],0.284 °C
7,CC[C@]1(O)C[C@H]2CN(CCc3c([nH]c4ccccc34)[C@@](C(=O)OC)(c3cc4c(cc3OC)N(C=O)[C@H]3[C@@](O)(C(=O)OC)[C@H](OC(C)=O)[C@]5(CC)C=CCN6CC[C@]43[C@@H]65)C2)C1 [Vincristine],0.0537 °C
8,Nc1nc(CC(=O)Nc2ccc(CCNC[C@H](O)c3ccccc3)cc2)cs1 [Mirabegron],-0.0684 °C
9,O=C1C[C@@H](c2ccc(O)cc2)Oc2cc(O[C@@H]3O[C@H](CO)[C@@H](O)[C@H](O)[C@H]3O)ccc21 [Neoliquiritin],-0.113 °C
10,COc1ccccc1OCC(O)CO (configuration not stated) [Guaifenesin],0.043 °C
11,Cc1cc(=O)[nH]c(=S)[nH]1 [Methylthiouracil],0.066 °C
12,CC(=O)[C@H]1CC[C@H]2[C@@H]3C=CC4=CC(=O)CC[C@@]4(C)[C@@H]3CC[C@]12C [Dydrogesterone],-0.201 °C
13,CN1[C@@H]2CC[C@H]1C[C@@H](OC(=O)c1c[nH]c3ccccc13)C2 [Tropisetron],0.0525 °C
14,COc1cc(N)c(Cl)cc1C(=O)NC1CCN(Cc2ccc(F)cc2)CC1 [Fluoroclebopride],0.0139 °C
15,O=C(CCCCCCCC(=O)NCCO)NCCO [Adelmidrol],0.00326 °C
16,C1=Cc2ccccc2C(=C2CCN(CCCCc3nn[nH]n3)CC2)c2ccccc21,-0.0351 °C
17,CN(C)Cc1c[nH]c2ccccc12 [Gramine],-0.139 °C
18,O=c1[nH]c2cc(Cl)ccc2s1 [Chlorobenzothiazolinone],0.131 °C
19,COCCNCc1ccc(-c2cc3nccc(Oc4ccc(NC(=O)C5(C(=O)Nc6ccc(F)cc6)CC5)cc4F)c3s2)nc1 [Sitravatinib],0.436 °C
20,Cc1cccc(C)c1OCC(C)N (configuration not stated) [Mexiletine HCl],-0.0958 °C
21,COc1ccc(-n2nc(C(F)(F)F)cc2-c2ccc(Cl)cc2)cc1,-0.16 °C
22,COc1ccc(/C=C/C(=O)Nc2ccccc2C(=O)O)cc1OC [Trans-Tranilast],0.0559 °C
23,COc1ccc(/C=C/C(=O)Nc2ccccc2C(=O)O)cc1OC [Tranilast],0.246 °C
24,CCN(CC)CCNC(=O)c1c(C)[nH]c(/C=C2\C(=O)Nc3ccc(F)cc32)c1C [Sunitinib Malate],0.0904 °C
25,CCN(CC)CCNC(=O)c1c(C)[nH]c(/C=C2\C(=O)Nc3ccc(F)cc32)c1C [Sunitinib],-0.167 °C
26,Cc1ncc(CCCN(C)C)cc1Nc1ncc2c(n1)-c1ccc(C(F)(F)F)cc1NC(=S)C2,-0.00254 °C

# Some of the entries above, reformatted:
row	SMILES	thermal shift ΔTm of Mpro
11	Cc1cc(=O)[nH]c(=S)[nH]1 [Methylthiouracil]	0.066 °C
12	CC(=O)[C@H]1CC[C@H]2[C@@H]3C=CC4=CC(=O)CC[C@@]4(C)[C@@H]3CC[C@]12C [Dydrogesterone]	-0.201 °C
13	CN1[C@@H]2CC[C@H]1C[C@@H](OC(=O)c1c[nH]c3ccccc13)C2 [Tropisetron]	0.0525 °C

# (further entries)

row,SMILES,thermal shift ΔTm of Mpro
1,Oc1ccc(/C=C/c2cc(O)cc(O)c2)cc1 [Resveratrol],0.576 °C
2,CCN(CC)Cc1ccc(C(=O)N(CCc2ccccc2OC)[C@@H]2CCNC2)cc1,0.00759 °C
3,CCOC(=O)C1=C(COCCN)NC(C)=C(C(=O)OC)C1c1ccccc1Cl (configuration not stated) [Amlodipine besylate (Norvasc)],0.00728 °C
4,CCOC(=O)C1=C(COCCN)NC(C)=C(C(=O)OC)C1c1ccccc1Cl (configuration not stated) [Amlodipine],0.00626 °C
5,Cc1cc(/C=C/C#N)cc(C)c1Nc1ccnc(Nc2ccc(C#N)cc2)n1 [Rilpivirine],0.409 °C
6,Cc1c(N(C)C)c(=O)n(-c2ccccc2)n1C [Amidopyrine],-0.15 °C
7,CCOc1cc2ncc(C#N)c(Nc3ccc(F)c(Cl)c3)c2cc1NC(=O)/C=C/CN(C)C [Pelitinib (EKB-569)],0.314 °C
8,C=C1C(=O)[C@]23[C@H](O)[C@H]1CC[C@H]2[C@@]12CO[C@]3(O)[C@@H](O)[C@@H]1C(C)(C)CC[C@@H]2O [Oridonin],-0.585 °C
9,CC(C(=O)O)c1ccc2c(c1)[nH]c1ccc(Cl)cc12 (configuration not stated) [Carprofen],0.0132 °C
10,"COc1ccc(CCC(=O)O)cc1OC [3,4-Dimethoxyhydrocinnamic acid]",-0.252 °C
11,CO/N=C(\C(=O)N[C@@H]1C(=O)N2C(C(=O)O)=C(CSc3nnnn3C)CS[C@H]12)c1csc(N)n1 [Cefmenoxime hydrochloride],0.257 °C
12,NCCNc1ncc(C(N)=O)c(Nc2cccc(C(F)(F)F)c2)n1 [Syk Inhibitor II (hydrochloride)],-0.124 °C
13,C=CCc1cccc(/C=N/NC(=O)CN2CCN(Cc3ccccc3)CC2)c1O,-0.171 °C
14,O=C1c2c(O)cccc2C([C@@H]2O[C@H](CO)[C@@H](O)[C@H](O)[C@H]2O)c2cc(CO)cc(O)c21 (some centres not stated) [Aloin],0.0194 °C
15,O=C(Nc1cccc(C(F)(F)F)c1)Nc1cc(S(=O)(=O)NC2CC2)ccc1-c1ccsc1,0.557 °C
16,Cc1noc2c1-c1ccccc1C(c1ccc(Cl)cc1)=N[C@H]2CC(N)=O,0.299 °C
17,O=C(Nc1cc(Oc2cc(F)c(NC(=O)C3(C(=O)Nc4ccc(F)cc4)CC3)cc2F)ccn1)C1CC1 [Altiratinib],0.0907 °C
18,CNCC(=O)OCc1cccnc1N(C)C(=O)OC(C)[n+]1cnn(C[C@](O)(c2cc(F)ccc2F)[C@@H](C)c2nc(-c3ccc(C#N)cc3)cs2)c1 (some centres not stated) [Isavuconazonium sulfate],-0.0209 °C
19,Cc1ccccc1C(=O)Nc1ccc(C(=O)N2CCCC(O)c3cc(Cl)ccc32)c(C)c1 (configuration not stated) [Tolvaptan],-0.0958 °C
20,CC(=O)O[C@H]1CC[C@@]2(C)C(=CC[C@@H]3[C@@H]2CC[C@]2(C)C(c4cccnc4)=CC[C@@H]32)C1 [Abiraterone Acetate],-0.566 °C
21,O=C1NC(=NCc2cccs2)S/C1=C\c1ccc2ncccc2c1,-0.183 °C
22,Nc1nc2[nH]cnc2c(=S)[nH]1 [Thioguanine],-0.00517 °C
23,C=CC(=O)Nc1cc(Nc2ncc(C(=O)Nc3cc(NC(=O)c4cc(OC)c(OC)c(OC)c4)ccc3C)c(NC)n2)ccc1C,0.0692 °C
24,NC(=O)c1ccc(-c2nc(-c3ccc4c(c3)OCCO4)c(-c3ccccn3)[nH]2)cc1,1.34 °C
25,CC(C)c1cc2c(cc1S(=O)(=O)O)[C@@]1(C)CCC[C@@](C)(C(=O)O)[C@@H]1CC2 [Ecabet Sodium],0.106 °C

# A stretch from the list above:
row,SMILES,thermal shift ΔTm of Mpro
16,O=C(NCc1ccccc1)c1csc(Nc2ccncn2)n1 [Thiazovivin],0.278 °C
17,C=CC(=O)Nc1cc2c(Nc3ccc(F)c(Cl)c3)ncnc2cc1OCCCN1CCOCC1 [Canertinib],0.196 °C
